At least one structure is not confirmed: it was looked up by name or label, or the drawing left a doubt.
System: alpha-2 adrenoceptors
Experiment: alpha-2 adrenergic activity and selectivity (receptor binding affinities and in vitro functional potencies)
Format: biochemical
Procedure: The pharmacological activity and selectivity of these compounds can be determined using published test procedures. […] (See, e.g., The Alpha-2 Adrenergic Receptors, L. E. Limbird, ed., Humana Press, Clifton, N.J.) The following in vivo assays are typically conducted in rodents or other species. Central nervous system activity is determined by measuring locomotor activity as an index of sedation. (See, e.g., Spyraki, C. & H. Fibiger, “Clonidine-induced Sedation in Rats: Evidence for Mediation by Postsynaptic Alpha-2 Adrenoreceptors”, Journal of Neural Transmission, Vol. 54 (1982), pp. 153-163). Nasal decongestant activity is measured using rhinomanometry as an estimate of nasal airway resistance. […] Antiglaucoma activity is determined by measuring intraocular pressure. […] Antidiarrheal activity is determined by measuring the ability of the compounds to inhibit prostaglandin-induced diarrhea. […] Efficacy in treating irritable bowel syndrome is determined by measuring the ability of compounds to reduce the stress-induced increase in fecal output. […] Antiasthma activity is determined by measuring the effect of the compound on bronchoconstriction associated with pulmonary challenges such as inhaled antigens. […] Activity in cough is determined by measuring the number and latency of the cough response to respiratory challenges such as inhaled citric acid. […]

Cc1c(N=C2NCCN2)cc(C#N)c2[nH]cnc12 [Example 1, 7-Cyano-5-(2-imidazolinylamino)-4-methylbenzimidazole]
alpha-2 adrenergic activity (pharmacological profile): very potent and selective alpha-2 adrenergic agonists
